pIC50: −log10 of the molar value.

Chains of the proteins cited; added tags and fusions are not shown.
UniProt Q14524, whole entry: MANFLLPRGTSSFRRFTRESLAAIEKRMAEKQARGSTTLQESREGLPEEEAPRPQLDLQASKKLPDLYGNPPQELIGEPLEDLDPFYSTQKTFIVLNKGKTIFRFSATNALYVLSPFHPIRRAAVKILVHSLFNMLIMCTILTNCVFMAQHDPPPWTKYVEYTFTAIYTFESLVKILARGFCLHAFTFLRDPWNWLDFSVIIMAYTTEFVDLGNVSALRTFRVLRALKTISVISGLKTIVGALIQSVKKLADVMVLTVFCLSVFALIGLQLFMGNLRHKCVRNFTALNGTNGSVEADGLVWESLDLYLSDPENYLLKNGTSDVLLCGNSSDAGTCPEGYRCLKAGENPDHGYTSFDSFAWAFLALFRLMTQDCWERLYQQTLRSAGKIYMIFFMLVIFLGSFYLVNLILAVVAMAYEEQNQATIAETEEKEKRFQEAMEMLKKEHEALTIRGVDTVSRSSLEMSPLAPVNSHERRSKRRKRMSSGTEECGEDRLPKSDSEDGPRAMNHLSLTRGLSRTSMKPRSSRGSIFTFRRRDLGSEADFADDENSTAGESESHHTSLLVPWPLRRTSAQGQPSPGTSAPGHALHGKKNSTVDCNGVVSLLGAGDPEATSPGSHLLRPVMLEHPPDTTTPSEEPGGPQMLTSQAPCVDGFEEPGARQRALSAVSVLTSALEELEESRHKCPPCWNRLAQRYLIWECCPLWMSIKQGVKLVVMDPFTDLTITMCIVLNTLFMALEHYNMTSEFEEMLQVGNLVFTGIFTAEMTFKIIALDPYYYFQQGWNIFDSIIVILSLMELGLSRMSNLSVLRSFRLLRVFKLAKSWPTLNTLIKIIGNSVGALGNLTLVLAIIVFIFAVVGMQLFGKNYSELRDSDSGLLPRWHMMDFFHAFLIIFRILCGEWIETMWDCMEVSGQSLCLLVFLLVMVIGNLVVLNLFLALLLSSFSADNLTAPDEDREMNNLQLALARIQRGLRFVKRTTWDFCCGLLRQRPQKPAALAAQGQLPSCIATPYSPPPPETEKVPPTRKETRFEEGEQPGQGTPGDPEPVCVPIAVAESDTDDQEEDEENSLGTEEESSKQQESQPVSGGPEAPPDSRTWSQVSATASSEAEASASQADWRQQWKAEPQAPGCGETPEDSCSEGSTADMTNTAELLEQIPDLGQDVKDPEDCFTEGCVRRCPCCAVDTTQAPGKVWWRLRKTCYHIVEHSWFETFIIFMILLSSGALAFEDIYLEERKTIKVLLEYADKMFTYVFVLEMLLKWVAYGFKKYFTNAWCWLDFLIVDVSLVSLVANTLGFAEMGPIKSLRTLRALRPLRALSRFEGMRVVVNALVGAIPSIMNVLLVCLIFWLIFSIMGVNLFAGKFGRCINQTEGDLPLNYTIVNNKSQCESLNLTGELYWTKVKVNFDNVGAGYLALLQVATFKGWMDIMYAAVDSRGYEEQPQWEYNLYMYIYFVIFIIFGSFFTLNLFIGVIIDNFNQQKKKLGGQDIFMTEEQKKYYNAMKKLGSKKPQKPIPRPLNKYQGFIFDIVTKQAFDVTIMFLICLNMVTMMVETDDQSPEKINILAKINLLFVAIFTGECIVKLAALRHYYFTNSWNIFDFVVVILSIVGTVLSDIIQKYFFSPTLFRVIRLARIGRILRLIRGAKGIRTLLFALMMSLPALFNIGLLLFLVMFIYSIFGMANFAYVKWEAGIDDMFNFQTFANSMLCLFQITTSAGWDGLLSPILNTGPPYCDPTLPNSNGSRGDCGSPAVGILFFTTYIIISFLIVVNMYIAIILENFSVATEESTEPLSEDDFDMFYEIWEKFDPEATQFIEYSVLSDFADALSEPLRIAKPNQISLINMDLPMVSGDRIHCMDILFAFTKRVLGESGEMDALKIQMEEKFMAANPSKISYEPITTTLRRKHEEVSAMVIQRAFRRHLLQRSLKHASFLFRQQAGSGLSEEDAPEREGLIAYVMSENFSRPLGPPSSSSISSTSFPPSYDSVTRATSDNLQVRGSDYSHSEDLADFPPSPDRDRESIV

The target in data set [1] is batrachotoxin-sensitive Na+ channel (site 2). The data set is described as follows: [3H]batrachotoxin binding to Na+ channels (site 2). The settings on record: rat cerebral cortex, 10 nM ligand, 60 min/22° C.; read-out: IC50, inhibition of [3H]batrachotoxin specific binding.
In a further data set the target is T1, NaV1.5 sodium channel (Homo sapiens, UniProt Q14524).
T1 construct: expressed in transfected cells; host or cells: HEK-293
The data set is described as follows: NaV1.5 electrophysiology (patch clamp) in HEK-293 cells. The format is cell-based. Particulars: read-out: inhibition of NaV1.5 channels. As to the method: The inhibitory effects of LAC-34 on batrachotoxin-sensitive Na^+ channel binding sites were tested using binding assays. The inhibitory effects of LAC-34 on human NaV1.3 and NaV1.5 channels were tested using electrophysiological methodology on stably expressed in mammalian cells (HEK-293). Inhibition of NaV1.8 channels were tested using electro-physiological methodology on dorsal root ganglia (DRG neurons)
Electrophysiological methodology was used and mammalian (HEK-293) cells, stably expressing NaV1.3 channels and superfused with vehicle control solution. The intracellular pipette contained solutions with the test article (LAC-34 or lidocaine.) A commercial patch clamp amplifier was used.
The same methodology as previously used for tests on NaV1.3 channels was also used for NaV1.5 channels.
In general terms: Patch clamp records ionic current or voltage across a cell membrane.

Consider `CCN(CC)CC(=O)Nc1c(C)cccc1C` [Lidocaine, reference compound], for which the pIC50 (in general, the negative decadic logarithm of the IC50, by convention in mol/L) in data set [1] is 4.28. Besides, on NaV1.5 sodium channel, the inhibition – broadly, the relative decrease from the control value, in per cent – at 2 mM stood at 90%.

Values taken from patent US20110218218A1, “Formulations Of Indanylamines And The Use Thereof As Local Anesthetics And As Medication For Chronic Pain” (BRIDGE PHARMA, INC., priority 2005, published 2011).
